# Results of single-concentration screens

Mtb glucose medium: 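Whole-cell growth test on Mycobacterium tuberculosis, read after 3 days in glucose-containing 7H9 medium; the read-out is not stated. Tested at 50 µM. Higher reads as more growth inhibition (inferred: compounds with an IC50 in retests scored well above the rest). Size under these conditions: about 69,000 compounds, about 760 of them at 50% or above in at least one test.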
Mtb cholesterol medium: 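Phenotypic screen: M. tuberculosis growth, cholesterol and DPPC medium, 4 days; the read-out is not stated. Tested at 50 µM. Direction is inferred from retests: higher values go with more growth inhibition. About 69,000 compounds were tested under these conditions; 0.54% (about 370) showed 50% or more at least once.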

The filed quantity is “Percent Effect” (%). How 0% and 100% were set is not recorded. Most values in the screen are low, and negative values occur. The compounds are a random part of those screened. Two or more numbers in one place are separate tests of the same structure; such repeats can differ widely.

compound | Mtb glucose medium | Mtb cholesterol medium
COCC(=O)Nc1ccccc1-c1ccc(=O)n(C)n1 | 6.865 & -9.714 | 17.9
Fc1ccccc1CN1CCC(c2noc(-c3ccccn3)n2)CC1 | -5.291 | -3.968
CN1CCN(Cc2nnc(C3CCN(C4CCCCC4)CC3)n2C)CC1 | -4.647 | 0.1672
[H][C@]12CCN(Cc3cc(=O)n4c5c(cccc35)CCC4)C[C@]([H])(CC1)N2 | 10.56 & 24.42 | 12.57
CCOc1cc(C)nc(N2CCN(Cc3nccn3CC)CC2)n1 | 2.651 | -23.41
Cc1nccn1CCCn1c(=O)cnc2ccccc21 | -33.49 | -23.58
CC(C)c1cc(C(=O)N2CCN(c3ccc(F)c(Cl)c3)CC2)n(C)n1 | 22.82 | -1.712
O=C(c1coc(COc2cccc3cnccc23)n1)N1CCCCCC1 | -2.957 & -8.657 | 10.93 & -9.499
Cn1cc(Cl)cc1C(=O)N1CCCN(Cc2cccs2)CC1 | 1.885 | 1.334
CC(C)c1csc(C2CCCN(C(=O)c3ncccn3)C2)n1 (stereo not drawn) | -0.5466 | 2.936
CS(=O)(=O)N1CC[C@@H](CC(=O)O)[C@@H](CC2=NCCc3cc(F)ccc32)C1 | -2.611 & 13.02 | 2.74
O=C(c1ccc(O)c(Cl)c1)N1CCC(c2n[nH]c(C3CC3)n2)CC1 | -4.685 | -4.864
CO[C@@H]1CC[C@@H](N(C)C(=O)c2cn3cc(C)ccc3n2)[C@H]1O | -21.34 | 8.756 & -0.7629
Cc1cnn(CC2CCCN2C(=O)c2ccccc2-n2cccn2)c1 (stereo not drawn) | 17 | 9.17
NC(=O)C1CCN(CCCNC(=O)Nc2nccs2)CC1 | 11.77 | 8.6
CC(C(=O)NCc1cccc(N2CC=CC2)c1)n1cccn1 (stereo not drawn) | -8.897 | -7.723
CC(=O)Nc1nc(C(=O)N2CCCC(n3ccnc3C)C2)cs1 (stereo not drawn) | 3.562 | -14.84
O=C(CCn1c(=O)oc2ccccc21)NCC(O)c1ccc(Cl)cc1 (stereo not drawn) | -14.22 | -12.97
Nc1cc2c(nn1)CCN(C(=O)c1ccc(Oc3cccnc3)cc1)C2 | 14.33 | 9.401
COc1cccc(-c2noc(C3CCN(CC(N)=O)C3)n2)c1 (stereo not drawn) | 22.73 | 8.024
CN(Cc1nc(Cc2cccc(F)c2)no1)C1CCOCC1 | -18.46 & 18.46 | 17.32
C=C(C)COCCNC(=O)Nc1cccc(Cn2nc(C)nc2C)c1 | -7.228 | -22.02
CC(C)c1[nH]c2ncccc2c1CN1CCC(O)CC1 | 6.002 | 5.19
Cc1nn(C)c(Cl)c1C1CCCN1Cc1ccc(C(N)=O)cc1 (stereo not drawn) | 5.27 | 5.122
Cc1nccc(N[C@H]2CN(C(=O)CCN3CCCC3=O)C[C@@H]2C(C)C)n1 | 1.657 | 6.778
Fc1cccc2[nH]c(CN3CCn4c(nnc4C4CC4)C3)nc12 | -5.732 | -4.476
CCn1cc(NC(=O)NCCc2ccc3c(c2)OCO3)cn1 | -15.26 | -26.24
O=C(CSc1nncs1)N1CCN(Cc2ccc(Cl)s2)CC1 | 46.45 & 40.25 | 44.42
CCOc1cc2c(cc1C(=O)O)CCC2 | 16.87 | 2.527
COc1ccc(CNCCC(=O)N2CCc3sccc3C2)cc1O | 12.82 & -11.95 | -18.82
CCCN(CC)C(=O)c1cc2c(c3ccccc3n2C)n1C(=O)N(C)C | 5.393 | -8.91
CCN(CC(=O)Nc1c(C)nn(C)c1C)CC(O)c1ccc(C)cc1 (stereo not drawn) | -4.166 | 24.1
O=C(O)CC(NC(=O)c1cc(Br)c[nH]1)c1ccccc1 (stereo not drawn) | -1.833 | -2.149 & -80.24
Cc1nc(CCNC(=O)C2CC(=O)N(C(C)C)C2)sc1C (stereo not drawn) | -22.67 | -28.31
Cc1n[nH]cc1CNCC1(c2cccc(F)c2)CCOCC1.Cl | -31.19 | -18.78
CCc1nc(C2CCCN2C(=O)c2ccoc2C)no1 (stereo not drawn) | -9.158 | 0.2991
CCc1nnc(CN2CCC(C3CCCCCN3C(C)=O)CC2)o1.Cl (stereo not drawn) | -40.97 | -0.06456
COc1ccccc1CN1CCC(c2nn(CCN)c3nccnc23)C1 (stereo not drawn) | 38.8 | 15.31
Cn1ncnc1CNC1CCc2cc(Cl)ccc21 (stereo not drawn) | 19.57 | 10.94
Cc1nnc(SCC(=O)N2CCC3(CC2)c2ccccc2CC3O)o1 (stereo not drawn) | -22.89 | -30.56
O=C(NC1CCc2ccccc2C1)C1CCN(Cc2ccco2)CC1 (stereo not drawn) | -15.43 | -14.19
Cc1nc(CN(C)C2CCN(Cc3ccc4c(c3)OCCO4)C2)no1 (stereo not drawn) | 2.315 | 5.401

Repeated from the top, 4 entries:

COCC(=O)Nc1ccccc1-c1ccc(=O)n(C)n1 gave Mtb glucose medium: 6.865% & -9.714%; Mtb cholesterol medium: 17.9%.
Fc1ccccc1CN1CCC(c2noc(-c3ccccn3)n2)CC1 gave Mtb glucose medium: -5.291%; Mtb cholesterol medium: -3.968%.
CN1CCN(Cc2nnc(C3CCN(C4CCCCC4)CC3)n2C)CC1 gave Mtb glucose medium: -4.647%; Mtb cholesterol medium: 0.1672%.
[H][C@]12CCN(Cc3cc(=O)n4c5c(cccc35)CCC4)C[C@]([H])(CC1)N2 gave Mtb glucose medium: 10.56% & 24.42%; Mtb cholesterol medium: 12.57%.

The values are deposited in ChEMBL (CHEMBL3988442, “University of Dundee, Small-Polar-MMV Screening Library” (2021)).